The record followed here is article PMC5698439.

The assay addresses T1, V5-tagged CORO2B (mouse) (UniProt Q8BH44).
T1 sequence: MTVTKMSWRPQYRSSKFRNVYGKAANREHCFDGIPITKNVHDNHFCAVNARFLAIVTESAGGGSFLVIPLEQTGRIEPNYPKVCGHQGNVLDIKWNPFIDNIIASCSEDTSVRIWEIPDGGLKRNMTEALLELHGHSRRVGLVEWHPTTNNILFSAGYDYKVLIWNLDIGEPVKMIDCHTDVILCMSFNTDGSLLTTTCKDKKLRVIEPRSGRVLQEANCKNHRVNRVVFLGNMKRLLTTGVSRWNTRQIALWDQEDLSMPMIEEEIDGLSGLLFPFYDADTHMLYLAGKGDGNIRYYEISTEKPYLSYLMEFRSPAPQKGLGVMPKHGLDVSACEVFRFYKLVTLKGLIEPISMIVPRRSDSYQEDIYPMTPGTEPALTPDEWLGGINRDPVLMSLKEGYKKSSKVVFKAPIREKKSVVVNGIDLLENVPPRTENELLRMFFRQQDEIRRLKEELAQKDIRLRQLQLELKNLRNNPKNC
The assay is described as follows: co-IP; HEK293T cells transfected with the indicated constructs, 24 h; lysis in 1% Triton X-100 buffer (50 mM NaCl, 50 mM NaF, 15 mM Na4P2O7, 1 mM EDTA, pH 7.4); anti-V5 antibody 12 h at 4 °C, protein G-Sepharose beads, 5 washes; western blot.

These are yes or no findings as the source states them, for the method shown. In cells and extracts the contact can be indirect. Binding calls can cover weak binding; strength is not graded here. Sequences can lack the tags named with a protein.

As for TALIN, the binding result is “binds”.

VINCULIN (from UniProt P18206-2): the binding entry was “binds”.
